Source: PubChem BioAssay AID2685 (National Center for Advancing Translational Sciences (NCATS), 2010)
The list shows a part of the results. Shown are side measurements of this screen, not its main read-out; they come without a call. Compounds called inactive in the main read-out are mostly missing here. Potencies come from curve fits of mixed quality, noted in brackets.

Assay: qHTS Assay for Lipid Storage Modulators in Drosophila S3 Cells;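 for cell number change: cells counted by Cell Tracker Red CMTPX staining in the red channel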
Conditions: BODIPY lipid droplet fluorescence, 18-24 h; for cell number change: measured here: cell count max response, cells fed with added oleic acid
Outline: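 Drosophila S3 cells got compounds at several concentrations plus oleic acid (400 uM solution). Laser-scanning cytometry with 488 nm excitation read lipid droplets at 500-530 nm and cells at 575-640 nm. Percent activity was relative to 20 uM Triacsin C.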

[1] = measured here: cell number channel AC50, cells fed with added oleic acid
[2] = measured here: lipid fluorescence (Fed channel) AC50, cells fed with added oleic acid

Structure (SMILES)	cell number change [%]	AC50 [1]	AC50 [2]
Brc1cccc(-c2nnc(SCc3ccon3)n2-c2ccccc2)c1	2.86	0.00461 µM [falling, full curve, poor fit]	4.11 µM [rising, single point]
COc1ccc(C(=O)N2CCN(c3ccc([N+](=O)[O-])c(NCCc4ccc(OC)c(OC)c4)c3)CC2)cc1	-49.1	13 µM [falling, partial curve]	8.2 µM [falling, partial curve, poor fit]
CCN1C(=O)[C@H]2[C@@H](c3ccc(C)cc3)N3C(=O)N(c4ccccc4)C(=O)[C@@]3(Cc3ccccc3)[C@H]2C1=O	33.7	1.64 µM [rising, full curve]	
Cc1cc(O)c(C(=O)/C=C/c2ccccc2)c(=O)o1	18		6.51 µM [falling, single point]
CC(=O)c1ccc(NC(=O)CSc2nnc(-c3ccncc3)o2)cc1	19.2		
CCOC(=O)c1c(C)[nH]c(C(=O)COC(=O)/C=C/c2ccc(O)c(OC)c2)c1C	-10.5		
COc1cccc(C(=O)Nc2cc(C(=O)NCc3ccc(C)cc3)ccc2N2CCC3(CC2)CC(c2cccc(Br)c2)=NO3)c1	32.8	32.6 µM [rising, single point]	29.1 µM [rising, single point]
Cc1nnsc1C(=O)Nc1ccc(S(=O)(=O)N2CCCC(C)C2)cc1 (configuration not stated)	12.2		
O=C(NCCc1ccc(Cl)cc1)C1(c2ccccc2)CC1	14.1		
CC[n+]1c(/C=C(\C)OC)sc2ccccc21	7.07		2.31 µM [rising, partial curve, poor fit]
Cn1c(C(=O)O)c(CC(=O)Nc2ccccc2F)c2ccccc21	12.5		1.84 µM [falling, single point]
O=C(/C=C/c1ccccc1Cl)Nc1cccc(O)c1	-15		0.651 µM [falling, single point]
O=C(NN1CC(C(=O)OCc2ccc(Cl)cc2Cl)CC1=O)c1ccccc1 (configuration not stated)	8.09		29.1 µM [rising, single point]
Cn1cc(C(c2ccccn2)c2cn(C)c3ccccc23)c2ccccc21	-0.62	0.13 µM [falling, full curve, poor fit]	6.51 µM [falling, single point]
C/C(N)=C(/C#N)C(=O)CSc1nnnn1-c1ccc(C)cc1C	-23.4		32.6 µM [falling, single point]
COCCN(CCOC)S(=O)(=O)c1ccc(OC)cc1	8.29		
Nc1nc2nccc(-c3ccc(Cl)cc3)n2n1	59.4	4.61 µM [rising, partial curve, poor fit]	
Cc1onc(-c2c(F)cccc2Cl)c1C(=O)NCc1ccccc1	-1.05		29.1 µM [falling, single point]

Structure (SMILES)	cell number change [%]	AC50 [1]	AC50 [2]
O=C(CN1C(=O)NC2(CCCCCC2)C1=O)c1ccccc1	36.2	35.5 µM [rising, single point]	15.8 µM [rising, partial curve]
Cc1c(/C(O)=C2\C(=O)C(=O)N(CCN(C)C)C2c2ccco2)cnn1-c1ccccc1 (configuration not stated)	-55.7	25.9 µM [falling, single point]	
CC(=O)CSc1nnc(-c2ccc(S(=O)(=O)N3CCOCC3)cc2)n1C	-11.8	0.00461 µM [falling, full curve, poor fit]	0.112 µM [rising, full curve, poor fit]
CCOC(=O)Cn1c(S(=O)(=O)Cc2ccc(Cl)cc2)nc(-c2ccccc2)c1-c1ccccc1	2.91		20.6 µM [rising, single point]
CC(=O)NC(=S)Nc1ccc(S(=O)(=O)N2CCOCC2)cc1	32.8		
c1ccc(C2Nc3ccccc3-c3nc4ccccc4n32)cc1 (configuration not stated)	-10.8		0.411 µM [rising, partial curve, poor fit]
CCCC(=O)Nc1ccc(Cl)c(NC(=O)c2ccc(Br)o2)c1	4.18	0.461 µM [rising, full curve, poor fit]	0.517 µM [rising, full curve]
COc1cc(CO)ccc1OCC(=O)N1CCc2ccccc21	-31.4	11.2 µM [falling, single point]	10 µM [falling, partial curve, poor fit]
Cc1cccc(C)c1NC(=O)COC(=O)CCC(=O)c1cccs1	-32.8	25.9 µM [falling, single point]	1.46 µM [falling, full curve]
CCOc1ccc(-n2c(Cc3cc(=O)[nH]c(=O)[nH]3)nnc2SC(C)C(=O)OC)cc1 (configuration not stated)	30.1	6.51 µM [rising, single point]	
CN(C)C1(CNCC(O)c2ccccc2)CCCCC1 (configuration not stated)	8.45		29.1 µM [rising, single point]
Cc1nnc(SCC(=O)Nc2cc(S(=O)(=O)N3CCOCC3)ccc2C)s1		3.66 µM [rising, partial curve]	
COc1cc(NC(=O)c2cccs2)ccc1NC(=O)c1cc2ccccc2o1	-19.1		0.164 µM [rising, single point]
COc1ccc2ccccc2c1/C=N/O	-36.8	13 µM [falling, partial curve, poor fit]	32.6 µM [falling, single point]
CC(=O)c1cccc(-n2nnnc2SCC(=O)N2CCCC2)c1	19.8	0.231 µM [falling, full curve, poor fit]	1.84 µM [falling, partial curve]
CCOc1ccc(OCC)c(NC(=O)CN(C)S(=O)(=O)c2cccc3nsnc23)c1	-5.08		1.46 µM [rising, partial curve, poor fit]
NC(=O)c1c(NC(=O)C2CCCO2)sc2c1CCCCC2 (configuration not stated)	8.48		9.2 µM [rising, partial curve, poor fit]
CCOC(=O)c1c(C)oc2ccc(OCC(N)=O)cc12	115	20.6 µM [rising, single point]	29.1 µM [rising, single point]

Single records (already shown):
`Cc1nnc(SCC(=O)Nc2cc(S(=O)(=O)N3CCOCC3)ccc2C)s1` is listed as AC50 [1]: 3.66 µM [rising, partial curve]
`Cc1nnsc1C(=O)Nc1ccc(S(=O)(=O)N2CCCC(C)C2)cc1` (configuration not stated) is listed as cell number change [%]: 12.2
